Assay results: PubChem BioAssay AID1347426 (Functional Genomics Laboratory (NCATS/FGL), 2020)
The campaign covered roughly 31,000 sequences. About 1,400 (4.5%) were called active.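 Rule for the calls: active = median seed-adjusted z-score above 1 or below -1; inactive = the rest.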 The list shows a part of the results.

Experiment: Novel Modifiers of Survival Motor Neuron (SMN) Protein: Gene Identification via Genome-wide siRNA Screen;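 note: luminescence tracks full-length SMN protein made from the SMN2 reporter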
Conditions: HEK293T SMN2-luciferase reporter, siRNA knockdown, 72 h; actives lie on both sides
How it was run: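 siRNA screen, 10418 genes ×3 siRNAs; 1 pmol/well, lipid reverse transfection into HEK293T SMN2-luc reporter line. 72 h, 37 °C, 5% CO2; ONE-Glo readout. Data: neg-ctrl normalized, log10, MAD; hit = MAD >1.0 or < -1.0.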

Row | Sequence | median seed-adjusted z-score
1 | GGAUCCCAGUGAUAUCUCUTT against DHDDS | inactive: 0.0122
2 | GCAACUCAAAGGUGAUAAATT against CCNK | inactive: -0.717
3 | AAACCAUCCGGAUCAUCUATT against DTX4 | inactive: 0.409
4 | CCUCCGAAGUGAAAAAGAUTT against FBL | inactive: -0.0592
5 | GGAAUGGUUUGAACAACGATT against ZEB2 | inactive: 0.854
6 | CCACCAACCUCACAGAAGATT against MYH9 | inactive: -0.517
7 | GUACAAACCUCAUAAGGCATT against ZNF322B | inactive: 0.0433
8 | GGAAAGCUUAUGUAGUAUATT against KCNH7 | inactive: 0.0639
9 | CCAACGACUUGAACUCCAUTT against ASCL1 | inactive: 0.132
10 | CGGAGAGGUCAGUAACUAATT against TPM1 | inactive: 0.659
11 | UACAUAUGCUGGACAGAAATT against SSU72 | active: -1.64
12 | GGAGGAUACAGAUCACGUUTT against SFRS10 | inactive: -0.071
13 | CGAAAGAACUCAUGAGAGATT against ZNF263 | inactive: 0.397
14 | GAUCUCAAAUCAGAGUUAATT against ANXA7 | inactive: 0.671
15 | CUGUUGCUCUUCAUACUGATT against MCM2 | inactive: 0
16 | GACCCUGACUUUUAUCAAUTT against TBC1D25 | inactive: 0.0296
17 | GCACCAUUACUAUAGAGGATT against PTH2R | inactive: -0.492
18 | GGACGGCCCAAAUCCAAAATT against TADA3L | inactive: 0.00625
19 | GAACCAUACAUACUACAGATT against WDR31 | inactive: 0.796
20 | CCUUCUACAGGAUCUCCAATT against ADRA1A | active: -1.06
21 | CACUGGAUUUGAGAGGUUATT against ABHD7 | inactive: -0.301
22 | GCAAUUCAGCAACUACGAATT against STX18 | inactive: -0.151

Row | Sequence | median seed-adjusted z-score
23 | CUGUGAUUGUAGUAGAUCATT against SLC19A3 | inactive: -0.0232
24 | GAGGCUCAAUGUUACACCATT against ACAT1 | inactive: -0.848
25 | CUGAUAAAGUGGGUCAACATT against TNFRSF10B | inactive: 0.064
26 | GGACCACAGUCAUACUCCATT against NAE1 | inactive: -0.453
27 | AUAUAUAAGUUGUGCUAUATT against UBE2V1 | inactive: 0.745
28 | GGGAGUUUCUAUGCAGCGATT against SELO | inactive: 0.0973
29 | CCUUGGAGGAGAUCGCUGATT against TEKT2 | inactive: -0.349
30 | CAGCCAUGAUAAUAAAGCUTT against RARRES2 | inactive: -0.125
31 | AGGUGUCCGUUGAACUGGATT against CPSF4 | inactive: 0.298
32 | CAAGUUCGACACCACCUUUTT against SIRT6 | inactive: 0.0126
33 | GCCUGACUGUCCCUACAAATT against B4GALNT3 | inactive: -0.021
34 | CCAAGAUGACUGUGAAUAATT against POLDIP3 | inactive: 0.108
35 | CCAAGCAACUGAUCUAUUUTT against SLCO2A1 | inactive: -0.0778
36 | CCUUCAAUGUGGGUUAUCATT against DEGS1 | inactive: 0.0268
37 | GCAGUACACGAGAAAGUCATT against 1-Sep | inactive: 0.0103
38 | CGUCCAUCUUCGAUGCUAATT against GAPDHS | inactive: -0.674
39 | GCACCCUAGUUCUACCUCATT against CDKN1A | inactive: 0.158
40 | CGUGCGUCUUGUGAGCAGATT against HLA-DQB1 | inactive: 0.454
41 | GCAUAGUUAUGGAAGGAUATT against CENTB2 | inactive: 0
42 | CCUUCUGUAGGAUGCAUUUTT against LY6G5B | active: -1.29
43 | GGAAAGGUAAAGAUGCUAATT against SCIN | inactive: 0.509
44 | CCAUGCCCUAUGUUAAGAATT against RRM2B | inactive: -0.128

An excerpt of these results, as a markdown table.

| Row | Sequence | median seed-adjusted z-score |
| --- | --- | --- |
| 37 | GCAGUACACGAGAAAGUCATT against 1-Sep | inactive: 0.0103 |
| 38 | CGUCCAUCUUCGAUGCUAATT against GAPDHS | inactive: -0.674 |

Continued.

Row | Sequence | median seed-adjusted z-score
45 | GGAAGGGUCUGCAUCACAATT against GPI | inactive: -0.122
46 | GAAACAAGCGUAUUAAAGATT against ZNF468 | inactive: -0.0435
47 | CCACAGGACUCAAGGCACATT against ZNF697 | inactive: 0.0503
48 | AGCCCUCACUUCUACAACATT against FOXI1 | inactive: -0.217
49 | CGUUACUUUUCCAUCACAATT against CHRM5 | inactive: -0.553
50 | GCAUUAUGCCCAAACCUAUTT against ZNF438 | inactive: 0.165
51 | CACUAUACAGACUAAGUUUTT against PCDHA2 | inactive: 0.803
52 | GGCGAACAGUUCUACAUGUTT against IFT57 | active: -1.1
53 | CAGAGUCUCUUCCAACGAATT against TINAG | inactive: 0.374
54 | GCCUCGUGAUGUUAACAGATT against SLC6A11 | inactive: -0.0369
55 | GCCUAGAGCUCUUUCGUGATT against TRIM7 | inactive: -0.845
56 | GUGUACAGGUUAAAGUUAATT against TOP3A | inactive: 0.474
57 | GUACAACCAAUAUAACAAATT against TERF2 | inactive: 0.246
58 | GUUCCGAAAUAAUUUGAAATT against SIL1 | inactive: 0.0292
59 | CCAUCCUUAGAGUUCCUUATT against SLC23A3 | inactive: -0.254
60 | GCACGAAUGGUUCCAGUGATT against KLB | inactive: 0.221
61 | UCACUGGGAACUUCACUAATT against MIP | inactive: 0.702
62 | GAGACAAAAUUACAGGACATT against ELAVL4 | inactive: -0.0523
63 | CACUAGUCGUUAUGAUGGATT against DBT | inactive: -0.976
64 | GAAUUUGCGAUGUACUUAATT against CSNK1A1 | inactive: -0.608
65 | AGAUGUACAUCCUCGUGCATT against ELFN2 | inactive: -0.0888
66 | GACGAAGAGUUGACUGGAATT against NUP85 | inactive: 0.948

Row | Sequence | median seed-adjusted z-score
67 | GGUACCUUCUCGCUCAUCATT against DLL4 | inactive: 0.299
68 | CACUCGAAGCAGUUUGGAATT against SMS | inactive: 0.186
69 | ACGCUUACAUCAUCAGCUATT against EHD2 | inactive: 0.0989
70 | GGCAUAUGGUCGGAGUUCATT against ZNF667 | inactive: -0.101
71 | CCUUGACCAUGAAAAAGAATT against ZNF704 | inactive: -0.15
72 | GCACCGUGGUGUCAACCAUTT against KCNK12 | active: 1.04
73 | GCACAGGUUUCACCAGCAATT against CREB5 | inactive: -0.0542
74 | CCCUUGUAGUGAAACGGAATT against CYP4F8 | inactive: 0.756
75 | GAUUUCUAGGCAUCCCGUATT against ARSA | inactive: 0.0938
76 | GCAUGGAGGAUUACUGUGATT against SRGAP2 | inactive: 0.0323
77 | GCAUUGAGACUACAGGGAATT against SLC6A18 | inactive: 0.148
78 | GGUGGGCAAUAAAAGUGAUTT against DIRAS3 | inactive: -0.419
79 | CCCUCUGACAAAUAUGAAATT against HECTD3 | inactive: 0
80 | GCUUGAAUCUUAGUGACCATT against HOXC12 | inactive: 0.788
81 | CAGCUACUCUUGCCUAAAATT against USH1C | inactive: -0.164
82 | CUCAAGUAGUGGUGACUGATT against SORD | inactive: 0.17
83 | GCAACUUAGAGGGUCAAGATT against ZNF571 | inactive: 0.175
84 | UCACGACCAUGGACAUUCATT against SLC39A7 | inactive: 0.0554
85 | AUUCAAGUCUUCAAACUUUTT against MLLT1 | inactive: -0.086
86 | CCAGUACGCUAUGGACGUATT against MDN1 | inactive: 0.187
87 | GACUAUCAUUUAAGGAUGATT against ADAM21 | inactive: 0
88 | ACAAGGUGAUUGAGAUUAATT against PSMB8 | inactive: 0

Shown as a markdown table: entries from further up

| Row | Sequence | median seed-adjusted z-score |
| --- | --- | --- |
| 75 | GAUUUCUAGGCAUCCCGUATT against ARSA | inactive: 0.0938 |
| 76 | GCAUGGAGGAUUACUGUGATT against SRGAP2 | inactive: 0.0323 |
| 85 | AUUCAAGUCUUCAAACUUUTT against MLLT1 | inactive: -0.086 |
| 88 | ACAAGGUGAUUGAGAUUAATT against PSMB8 | inactive: 0 |

Additional entries follow:

Row | Sequence | median seed-adjusted z-score
89 | GGGAUAUUGUGGUUGAUAATT against RBX1 | inactive: -0.000499
90 | ACUACAUACUUUCUACAGATT against FNTB | inactive: -0.0163
91 | AAACCUACCUGAUGAGCAATT against CHAT | inactive: -0.109
92 | UCUCUUCAAUAUGUAUUUATT against HOXC9 | inactive: 0.395
93 | GGUUUAUCCUGUUCAAAGATT against HNRNPAB | inactive: -0.631
94 | UGUCAGAAGUUACCUGGGATT against QPRT | inactive: 0.15
95 | AGAUCCGAAUCGAGGCCAATT against ATP5D | inactive: 0
96 | AGUUCAUGGUUGUGGACAATT against RASSF5 | inactive: 0.11
97 | GUCCUACACUAUAAAUAUUTT against PCDHB14 | inactive: -0.229
98 | GCUCUACCCGGAAUGGAGATT against RAB6B | inactive: 0
99 | GACCUCUCAUAUACCUUAATT against ELL2 | inactive: 0.459
100 | GGAGAUGCCUCAGACCAGUTT against HOXB1 | inactive: -0.0455
101 | AUAUGAACAAUGCACGGUUTT against SELO | inactive: 0.0973
102 | CAGUCAAUGGUUAUAAGAATT against SLCO1B3 | inactive: -0.303
103 | GCAGAAUGUAUUUCACAGATT against ATP6V0D2 | inactive: -0.0346
104 | CCCUUUUGAGGUAGUAAAATT against SLC25A21 | inactive: -0.219
105 | GAUAAAAACACGCAGCUUATT against TRIM14 | inactive: -0.0636
106 | GAAGGAUUUUGAGCCCGAATT against LETM1 | inactive: -0.491
107 | GCUCACCGCAGAAUCCAUATT against KLF8 | inactive: 0.0976
